Test results published in US20170145063A1.
No constants are given. Whether binding was seen depends on the method and setting. Some results given as binding are weak or reduced against the parent protein; the word gives no strength. Values belong to the binder of their own block, whether it stands above or below them.

Chains of the proteins cited; added tags and fusions are not shown. Residues count along the entry.
epiregulin (extracellular domain) (O14944, residues 60-119): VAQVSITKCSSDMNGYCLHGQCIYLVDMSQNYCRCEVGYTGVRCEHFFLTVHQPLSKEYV
epiregulin on human colorectal cancer-derived DLD1 cells (O14944, residues 63-108): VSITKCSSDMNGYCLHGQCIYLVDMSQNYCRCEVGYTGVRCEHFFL

Experiments:
[1] = biological target: epiregulin on human colorectal cancer-derived DLD1 cells (human) (UniProt O14944); assay: cell staining of DLD1 cells, IN Cell Analyzer 6000 imaging
[2] = biological target: epiregulin on human colorectal cancer-derived DLD1 cells (human) (UniProt O14944); assay: FACS on DLD1 cells having epiregulin expressed
[3] = biological target: epiregulin (extracellular domain) (UniProt O14944); assay: complex formation, gel filtration before crystallisation

binding [1]: binds
binding [2]: binds
B1: anti-epiregulin scFv-FITC (scFv)
scFv: QVQLQQSGAEVKKPGASVKVSCKASGFNIKDTYMHWVRQAPEQGLEWMGRIDPLNDKTKYDPKFQGRVTITADTSTNTAYLELSSLTSEDTAVYYCARGGGDPVFVYWGQGTLVTVSASSGGGGSGGGGSGGGGSGGGGSGGDIQMTQSPSSLSASVGDRVTITCKASQDINKYLAWYQHKPGQAPRLLIHYTSTLHPGIPSRFSGSGSGTDFTFSISSLQPEDIATYYCLQYDNLRTFGGGTKVEIKRTSHHHHHH
modifications: FITC label (Fluorescein Labeling Kit-NH2); sites not stated

binding [3]: binds
B2: anti-epiregulin scFv (single chain variable region antibody of anti-epiregulin antibody) (scFv)
scFv: B1 scFv

binding [1]: binds
binding [2]: binds
B3: epiregulin IgG-FITC (antibody, V domains shown)
VH: QVQLQQSGAEVKKPGASVKVSCKASGFNIKDTYMHWVRQAPEQGLEWMGRIDPLNDKTKYDPKFQGRVTITADTSTNTAYLELSSLTSEDTAVYYCARGGGDPVFVYWGQGTLVTVSA
VL: DIQMTQSPSSLSASVGDRVTITCKASQDINKYLAWYQHKPGQAPRLLIHYTSTLHPGIPSRFSGSGSGTDYTFSISSLQPEDIATYYCLQYDNLRTFGGGTKVEIKR
modifications: FITC label (Fluorescein Labeling Kit-NH2); sites not stated

binding [1]: binds
binding [2]: binds
B4: anti-epiregulin scFv-V2122-FITC (scFv)
scFv: QVQLQQSGAEVKKPGASVKVSCKASGFNIKDTYMHWVRQAPEQGLEWMGRIDPLNDKTKYDPKFQGRVTITADTSTNTAYLELSSLTSEDTAVYYCARGGGDPVFVYWGQGTLVTVSASSGGGGSGGGGSGGGGSGGGGSGGDIQMTQSPSSLSASVGDRVTITCKASQDINKYLAWYQHKPGQAPRLLIHYTSTLHPGIPSRFSGSGSGTDFTFSISSLQPEDIATYYCLQYDNLRTFGGGTKVEIKRTSGGGGSGGGGAEAGITGTWSDQLGDTFIVTAGADGALTGTYENAVGGAESRYVLTGRYDSAPATDGSGTALGWTVAWKNNSKNAHSATTWSGQYVGGADAKINTQWLLTSGTTNANAWKSTLVGHDTFTKVKPSAASHHHHHH
modifications: FITC label (Fluorescein Labeling Kit-NH2); sites not stated
